Consider four substances from PMC5157023.

Protein sequences, listed by entry. Tags and fused reporters are not part of them.
UniProt P09874: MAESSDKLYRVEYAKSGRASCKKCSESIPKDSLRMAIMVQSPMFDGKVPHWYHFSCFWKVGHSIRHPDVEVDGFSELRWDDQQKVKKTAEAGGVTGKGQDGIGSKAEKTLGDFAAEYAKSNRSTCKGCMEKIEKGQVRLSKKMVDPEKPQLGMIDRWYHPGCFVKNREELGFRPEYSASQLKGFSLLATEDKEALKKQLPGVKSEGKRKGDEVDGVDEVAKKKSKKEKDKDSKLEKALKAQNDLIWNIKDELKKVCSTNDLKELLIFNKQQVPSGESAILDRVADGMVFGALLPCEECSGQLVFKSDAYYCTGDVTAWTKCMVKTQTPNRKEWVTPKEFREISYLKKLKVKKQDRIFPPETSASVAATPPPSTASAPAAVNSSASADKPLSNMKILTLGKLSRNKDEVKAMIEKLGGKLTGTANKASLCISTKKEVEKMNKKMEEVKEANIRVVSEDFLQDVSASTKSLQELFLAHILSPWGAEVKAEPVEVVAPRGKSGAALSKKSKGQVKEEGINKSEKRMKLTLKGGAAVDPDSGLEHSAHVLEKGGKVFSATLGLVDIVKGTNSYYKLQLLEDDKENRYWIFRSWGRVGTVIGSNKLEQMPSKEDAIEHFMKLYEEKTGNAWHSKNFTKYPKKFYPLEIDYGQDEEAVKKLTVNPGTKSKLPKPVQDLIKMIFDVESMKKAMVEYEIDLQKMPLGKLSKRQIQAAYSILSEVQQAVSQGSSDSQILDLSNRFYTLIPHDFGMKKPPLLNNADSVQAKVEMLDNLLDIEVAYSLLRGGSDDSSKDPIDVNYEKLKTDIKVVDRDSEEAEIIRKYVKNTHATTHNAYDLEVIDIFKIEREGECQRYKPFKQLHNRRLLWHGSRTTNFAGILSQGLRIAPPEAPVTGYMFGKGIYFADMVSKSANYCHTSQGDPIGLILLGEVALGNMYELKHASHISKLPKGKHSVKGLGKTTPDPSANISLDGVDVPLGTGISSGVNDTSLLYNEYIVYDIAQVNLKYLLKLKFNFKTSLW
UniProt Q13263: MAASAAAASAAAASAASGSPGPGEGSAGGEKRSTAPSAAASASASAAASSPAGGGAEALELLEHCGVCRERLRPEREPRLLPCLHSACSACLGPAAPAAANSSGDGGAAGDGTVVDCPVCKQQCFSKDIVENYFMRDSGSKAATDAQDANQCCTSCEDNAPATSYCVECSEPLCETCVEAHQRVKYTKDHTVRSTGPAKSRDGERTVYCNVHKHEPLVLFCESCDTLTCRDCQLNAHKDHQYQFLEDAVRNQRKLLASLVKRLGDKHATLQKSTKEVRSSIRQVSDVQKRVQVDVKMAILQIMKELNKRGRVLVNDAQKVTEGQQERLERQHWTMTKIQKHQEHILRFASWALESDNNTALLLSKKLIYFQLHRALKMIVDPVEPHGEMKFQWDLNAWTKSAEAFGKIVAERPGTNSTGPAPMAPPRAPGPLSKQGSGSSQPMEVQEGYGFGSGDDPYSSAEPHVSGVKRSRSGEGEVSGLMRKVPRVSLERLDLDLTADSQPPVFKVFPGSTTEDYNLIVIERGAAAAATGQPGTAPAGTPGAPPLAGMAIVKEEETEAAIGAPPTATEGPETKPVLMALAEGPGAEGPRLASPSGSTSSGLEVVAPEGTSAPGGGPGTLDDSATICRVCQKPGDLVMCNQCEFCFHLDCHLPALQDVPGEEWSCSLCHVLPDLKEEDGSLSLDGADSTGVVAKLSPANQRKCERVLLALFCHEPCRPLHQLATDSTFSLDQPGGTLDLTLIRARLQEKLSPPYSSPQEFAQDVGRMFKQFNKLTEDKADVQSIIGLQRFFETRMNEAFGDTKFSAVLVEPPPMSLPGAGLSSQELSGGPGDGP
UniProt P06748: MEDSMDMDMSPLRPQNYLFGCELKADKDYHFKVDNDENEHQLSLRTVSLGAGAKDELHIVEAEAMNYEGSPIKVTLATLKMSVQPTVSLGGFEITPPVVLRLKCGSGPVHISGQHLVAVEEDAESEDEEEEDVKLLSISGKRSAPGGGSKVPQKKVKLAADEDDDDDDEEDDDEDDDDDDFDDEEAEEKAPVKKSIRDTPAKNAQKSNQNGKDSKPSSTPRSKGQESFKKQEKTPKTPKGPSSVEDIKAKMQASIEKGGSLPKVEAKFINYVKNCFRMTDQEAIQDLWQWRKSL

Results are given in words; binding and its absence hold for the method and conditions named. In cells and extracts the contact can be indirect. Some entries that bind do so weakly or less than the wild type. Tags and fused reporters may be left off the sequences shown.

This assay deals with V5-tagged RE-1 silencing transcription factor (REST) (UniProt Q13127). Description: co-IP; V5 antibody-conjugated beads mixed with lysates of HEK293FT cells transfected with pcDNA_V5 or pcDNA_REST-V5; western blot of endogenous partners; lysis buffer 50 mM Tris-HCl pH 7.4, 150 mM NaCl, 5 mM EDTA, 0.2% TritonX-100, 15 U/ml DNAse I.
As for “poly[ADP-ribose]polymerase1 (PARP1) (from UniProt P09874 1-1014)”, the binding result was “binds”.

Consider “histone deacetylase 5 (HDAC5) (from UniProt Q9UQL6 1-1122)”, for which the binding entry is given as “binds”.

In the case of “Tripartite motif-containing 28 (TRIM28) (from UniProt Q13263 1-835)”, the binding result was “binds”.

With “nucleophosmin1 (NPM1) (from UniProt P06748 1-294)”, the binding result is on record as “binds”.
